Values of other authors as cited in patent US20120022032A1, “CORTICOSTEROID COMPOSITIONS AND METHODS OF TREATMENTS THEREOF” (priority 2008, published 2012).
Where two headings read alike, the source gives them in different places. At least one read-out could not be matched to a standard name with certainty.

Tests used:
[1] = oral inhalation; Vanden Burgt 2000 J Allergy Clin Immunol; cited from earlier work
[2] = nasal spray; Hochhaus 2002, J Clin Pharmacol; cited from earlier work

For `CCC(=O)OCC(=O)[C@@]1(OC(=O)CC)[C@@H](C)C[C@H]2[C@@H]3CCC4=CC(=O)C=C[C@]4(C)[C@@]3(Cl)[C@@H](O)C[C@@]21C` [beclomethasone dipropionate], the “difference in relative bioavailability between suspension and solution” value [1] is given as 2.5 times.

In the case of `CC1(C)O[C@@H]2C[C@H]3[C@@H]4CCC5=CC(=O)C=C[C@]5(C)[C@@]4(F)[C@@H](O)C[C@]3(C)[C@]2(C(=O)CO)O1` [triamcinolone acetonide], the “difference in relative bioavailability between suspension and solution” value [2] is given as 1-2 times.
